Assay results: paper PMC7364817
Results are given in words; binding and its absence hold for the method and conditions named. In cells and extracts the contact can be indirect. These calls come from enrichment with a bait or labelling near it, and not all partners need be listed. Tags and fused reporters may be left off the sequences shown.

Chains of the proteins cited; added tags and fusions are not shown. Residues count along the entry.
UniProt P41091: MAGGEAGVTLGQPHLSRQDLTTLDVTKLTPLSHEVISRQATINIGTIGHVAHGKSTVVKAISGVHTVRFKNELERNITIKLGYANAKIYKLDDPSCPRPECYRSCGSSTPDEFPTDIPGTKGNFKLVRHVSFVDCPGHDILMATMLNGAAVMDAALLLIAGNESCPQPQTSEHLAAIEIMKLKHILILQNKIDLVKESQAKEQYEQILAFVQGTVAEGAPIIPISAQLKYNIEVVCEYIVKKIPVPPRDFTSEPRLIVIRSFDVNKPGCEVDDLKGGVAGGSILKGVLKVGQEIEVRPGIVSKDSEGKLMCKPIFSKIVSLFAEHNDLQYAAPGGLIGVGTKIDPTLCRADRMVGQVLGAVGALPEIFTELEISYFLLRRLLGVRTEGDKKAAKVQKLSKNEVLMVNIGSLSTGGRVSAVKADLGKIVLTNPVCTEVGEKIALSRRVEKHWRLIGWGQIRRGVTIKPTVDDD
UniProt P35998: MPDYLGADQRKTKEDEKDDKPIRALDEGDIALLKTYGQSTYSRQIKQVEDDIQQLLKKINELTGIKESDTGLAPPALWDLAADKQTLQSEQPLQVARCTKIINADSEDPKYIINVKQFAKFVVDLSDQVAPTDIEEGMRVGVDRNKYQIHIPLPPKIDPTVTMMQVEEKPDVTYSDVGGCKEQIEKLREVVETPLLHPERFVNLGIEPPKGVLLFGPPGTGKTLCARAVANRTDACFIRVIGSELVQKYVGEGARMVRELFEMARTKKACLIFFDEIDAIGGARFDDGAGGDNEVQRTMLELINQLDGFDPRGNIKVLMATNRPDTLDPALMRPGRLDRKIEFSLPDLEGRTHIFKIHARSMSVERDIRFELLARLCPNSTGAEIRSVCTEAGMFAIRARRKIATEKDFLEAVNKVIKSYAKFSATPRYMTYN
UniProt P40939, residues 37-763: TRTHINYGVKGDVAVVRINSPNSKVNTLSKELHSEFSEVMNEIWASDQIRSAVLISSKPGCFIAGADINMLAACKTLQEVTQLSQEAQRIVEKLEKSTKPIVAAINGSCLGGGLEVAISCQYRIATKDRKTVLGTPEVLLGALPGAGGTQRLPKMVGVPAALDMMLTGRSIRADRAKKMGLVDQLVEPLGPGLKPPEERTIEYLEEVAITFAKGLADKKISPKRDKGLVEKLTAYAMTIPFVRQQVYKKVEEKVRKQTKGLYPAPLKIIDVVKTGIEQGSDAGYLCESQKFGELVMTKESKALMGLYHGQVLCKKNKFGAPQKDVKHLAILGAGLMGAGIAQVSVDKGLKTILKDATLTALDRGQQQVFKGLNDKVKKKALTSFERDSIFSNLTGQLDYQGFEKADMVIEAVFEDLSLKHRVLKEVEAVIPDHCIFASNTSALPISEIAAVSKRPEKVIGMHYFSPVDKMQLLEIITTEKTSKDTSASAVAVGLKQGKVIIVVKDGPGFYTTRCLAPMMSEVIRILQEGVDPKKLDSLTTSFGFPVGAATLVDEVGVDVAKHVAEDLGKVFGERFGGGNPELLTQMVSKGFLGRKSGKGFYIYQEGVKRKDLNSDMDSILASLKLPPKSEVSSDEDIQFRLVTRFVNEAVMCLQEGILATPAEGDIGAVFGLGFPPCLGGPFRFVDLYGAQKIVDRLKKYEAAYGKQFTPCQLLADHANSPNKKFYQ
UniProt Q01469: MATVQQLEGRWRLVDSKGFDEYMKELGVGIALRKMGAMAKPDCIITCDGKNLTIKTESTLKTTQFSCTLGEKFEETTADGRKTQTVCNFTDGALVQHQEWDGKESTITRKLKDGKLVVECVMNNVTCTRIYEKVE
UniProt Q9H0U4: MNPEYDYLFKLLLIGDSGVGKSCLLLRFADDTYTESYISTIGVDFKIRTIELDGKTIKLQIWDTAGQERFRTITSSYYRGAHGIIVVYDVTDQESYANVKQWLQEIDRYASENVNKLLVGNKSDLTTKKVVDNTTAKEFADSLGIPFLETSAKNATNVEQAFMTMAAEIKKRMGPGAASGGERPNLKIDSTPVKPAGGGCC
UniProt P53618: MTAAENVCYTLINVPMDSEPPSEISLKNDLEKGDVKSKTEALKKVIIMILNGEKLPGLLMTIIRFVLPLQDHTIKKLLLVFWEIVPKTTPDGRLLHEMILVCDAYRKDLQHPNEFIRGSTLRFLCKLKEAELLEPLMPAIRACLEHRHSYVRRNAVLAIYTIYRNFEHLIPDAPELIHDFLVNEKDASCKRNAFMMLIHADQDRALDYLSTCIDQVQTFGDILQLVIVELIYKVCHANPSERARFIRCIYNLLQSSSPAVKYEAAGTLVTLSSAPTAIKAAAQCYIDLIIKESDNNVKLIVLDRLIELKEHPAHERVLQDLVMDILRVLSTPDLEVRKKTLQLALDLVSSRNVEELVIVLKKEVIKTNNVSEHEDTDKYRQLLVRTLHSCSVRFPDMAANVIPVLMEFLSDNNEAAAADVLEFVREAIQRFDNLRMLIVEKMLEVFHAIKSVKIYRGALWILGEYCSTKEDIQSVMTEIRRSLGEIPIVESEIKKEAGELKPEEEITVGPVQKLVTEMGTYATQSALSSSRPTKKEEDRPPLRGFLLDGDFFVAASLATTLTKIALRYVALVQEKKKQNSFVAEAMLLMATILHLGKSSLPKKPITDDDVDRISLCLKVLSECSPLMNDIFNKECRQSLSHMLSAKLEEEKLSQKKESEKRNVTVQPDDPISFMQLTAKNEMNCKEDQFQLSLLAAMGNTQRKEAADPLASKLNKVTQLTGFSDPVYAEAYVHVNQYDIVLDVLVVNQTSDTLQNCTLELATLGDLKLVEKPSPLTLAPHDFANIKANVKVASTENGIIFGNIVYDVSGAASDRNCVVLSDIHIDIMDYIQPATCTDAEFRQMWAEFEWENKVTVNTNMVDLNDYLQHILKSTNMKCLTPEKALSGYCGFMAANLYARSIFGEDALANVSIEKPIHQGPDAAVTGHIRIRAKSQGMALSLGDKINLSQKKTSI
UniProt Q9NZT1: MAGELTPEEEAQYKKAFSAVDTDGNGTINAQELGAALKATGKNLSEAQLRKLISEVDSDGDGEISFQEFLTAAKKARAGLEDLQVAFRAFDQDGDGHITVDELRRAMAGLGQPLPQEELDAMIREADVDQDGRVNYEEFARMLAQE
UniProt Q5D862: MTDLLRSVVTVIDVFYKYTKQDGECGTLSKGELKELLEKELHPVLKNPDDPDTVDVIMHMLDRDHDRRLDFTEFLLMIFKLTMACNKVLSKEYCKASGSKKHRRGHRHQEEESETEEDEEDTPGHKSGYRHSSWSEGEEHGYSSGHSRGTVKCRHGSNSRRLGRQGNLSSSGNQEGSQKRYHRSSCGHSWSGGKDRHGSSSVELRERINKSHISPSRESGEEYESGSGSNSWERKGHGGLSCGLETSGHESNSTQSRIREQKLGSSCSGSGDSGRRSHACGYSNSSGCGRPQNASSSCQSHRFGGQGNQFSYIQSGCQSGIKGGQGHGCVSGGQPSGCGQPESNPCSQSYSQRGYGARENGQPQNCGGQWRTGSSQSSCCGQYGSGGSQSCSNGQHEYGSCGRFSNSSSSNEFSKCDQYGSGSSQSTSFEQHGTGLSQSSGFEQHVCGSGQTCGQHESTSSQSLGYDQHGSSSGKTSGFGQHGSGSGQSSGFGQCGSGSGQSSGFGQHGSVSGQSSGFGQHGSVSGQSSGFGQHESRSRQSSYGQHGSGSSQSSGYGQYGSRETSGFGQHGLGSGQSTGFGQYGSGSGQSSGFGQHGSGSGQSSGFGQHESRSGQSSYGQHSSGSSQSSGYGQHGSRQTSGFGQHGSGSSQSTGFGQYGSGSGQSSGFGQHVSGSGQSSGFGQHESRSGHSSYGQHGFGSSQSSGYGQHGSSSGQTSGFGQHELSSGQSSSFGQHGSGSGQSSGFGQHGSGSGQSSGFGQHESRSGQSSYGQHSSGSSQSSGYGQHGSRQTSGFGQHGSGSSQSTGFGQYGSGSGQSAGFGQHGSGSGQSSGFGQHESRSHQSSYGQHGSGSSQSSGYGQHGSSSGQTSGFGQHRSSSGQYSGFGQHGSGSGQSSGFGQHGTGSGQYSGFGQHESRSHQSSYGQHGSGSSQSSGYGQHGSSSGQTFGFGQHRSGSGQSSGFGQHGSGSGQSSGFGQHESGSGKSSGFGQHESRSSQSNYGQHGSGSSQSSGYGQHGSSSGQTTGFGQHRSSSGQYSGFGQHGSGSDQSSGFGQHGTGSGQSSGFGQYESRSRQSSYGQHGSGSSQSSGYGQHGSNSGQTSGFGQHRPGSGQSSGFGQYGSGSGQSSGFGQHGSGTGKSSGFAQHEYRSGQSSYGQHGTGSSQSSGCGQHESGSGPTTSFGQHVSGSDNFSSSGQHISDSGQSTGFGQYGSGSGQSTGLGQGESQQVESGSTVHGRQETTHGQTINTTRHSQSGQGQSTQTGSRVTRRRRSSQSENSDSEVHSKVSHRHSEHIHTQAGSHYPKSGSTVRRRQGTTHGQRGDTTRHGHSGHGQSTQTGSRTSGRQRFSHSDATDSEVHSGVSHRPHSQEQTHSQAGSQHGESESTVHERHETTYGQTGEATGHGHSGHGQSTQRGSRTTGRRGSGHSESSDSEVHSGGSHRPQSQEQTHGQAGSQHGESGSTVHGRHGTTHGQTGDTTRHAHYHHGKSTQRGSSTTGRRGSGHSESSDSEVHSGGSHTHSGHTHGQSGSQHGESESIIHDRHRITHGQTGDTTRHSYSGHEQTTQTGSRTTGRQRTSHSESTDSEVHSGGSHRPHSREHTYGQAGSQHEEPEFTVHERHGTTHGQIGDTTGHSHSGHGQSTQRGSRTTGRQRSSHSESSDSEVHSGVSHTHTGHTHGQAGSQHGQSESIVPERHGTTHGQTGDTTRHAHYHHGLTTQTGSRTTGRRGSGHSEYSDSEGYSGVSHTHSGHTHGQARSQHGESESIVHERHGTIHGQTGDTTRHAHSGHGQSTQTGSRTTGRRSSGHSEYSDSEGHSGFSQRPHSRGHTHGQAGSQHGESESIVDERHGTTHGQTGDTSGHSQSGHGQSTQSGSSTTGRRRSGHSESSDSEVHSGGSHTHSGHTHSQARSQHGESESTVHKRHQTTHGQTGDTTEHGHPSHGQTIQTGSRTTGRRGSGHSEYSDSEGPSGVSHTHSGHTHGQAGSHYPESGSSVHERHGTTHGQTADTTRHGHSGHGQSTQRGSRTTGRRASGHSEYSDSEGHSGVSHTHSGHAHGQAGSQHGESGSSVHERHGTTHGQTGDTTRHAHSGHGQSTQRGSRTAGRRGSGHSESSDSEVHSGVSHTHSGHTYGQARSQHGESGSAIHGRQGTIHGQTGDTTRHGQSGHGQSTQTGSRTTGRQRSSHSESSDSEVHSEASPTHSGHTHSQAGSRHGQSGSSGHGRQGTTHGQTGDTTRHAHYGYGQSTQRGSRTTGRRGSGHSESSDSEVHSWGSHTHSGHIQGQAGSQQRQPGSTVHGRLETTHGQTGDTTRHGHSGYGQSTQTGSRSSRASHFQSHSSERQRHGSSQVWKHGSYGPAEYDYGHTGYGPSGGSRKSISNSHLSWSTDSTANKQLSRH

B1: isoleucyl-tRNA synthetase (protein, UniProt P41252 1-1262)
chain: MLQQVPENINFPAEEEKILEFWTEFNCFQECLKQSKHKPKFTFYDGPPFATGLPHYGHILAGTIKDIVTRYAHQSGFHVDRRFGWDCHGLPVEYEIDKTLGIRGPEDVAKMGITEYNNQCRAIVMRYSAEWKSTVSRLGRWIDFDNDYKTLYPQFMESVWWVFKQLYDKGLVYRGVKVMPFSTACNTPLSNFESHQNYKDVQDPSVFVTFPLEEDETVSLVAWTTTPWTLPSNLAVCVNPEMQYVKIKDVARGRLLILMEARLSALYKLESDYEILERFPGAYLKGKKYRPLFDYFLKCKENGAFTVLVDNYVKEEEGTGVVHQAPYFGAEDYRVCMDFNIIRKDSLPVCPVDASGCFTTEVTDFAGQYVKDADKSIIRTLKEQGRLLVATTFTHSYPFCWRSDTPLIYKAVPSWFVRVENMVDQLLRNNDLCYWVPELVREKRFGNWLKDARDWTISRNRYWGTPIPLWVSDDFEEVVCIGSVAELEELSGAKISDLHRESVDHLTIPSRCGKGSLHRISEVFDCWFESGSMPYAQVHYPFENKREFEDAFPADFIAEGIDQTRGWFYTLLVLATALFGQPPFKNVIVNGLVLASDGQKMSKRKKNYPDPVSIIQKYGADALRLYLINSPVVRAENLRFKEEGVRDVLKDVLLPWYNAYRFLIQNVLRLQKEEEIEFLYNENTVRESPNITDRWILSFMQSLIGFFETEMAAYRLYTVVPRLVKFVDILTNWYVRMNRRRLKGENGMEDCVMALETLFSVLLSLCRLMAPYTPFLTELMYQNLKVLIDPVSVQDKDTLSIHYLMLPRVREELIDKKTESAVSQMQSVIELGRVIRDRKTIPIKYPLKEIVVIHQDPEALKDIKSLEKYIIEELNVRKVTLSTDKNKYGIRLRAEPDHMVLGKRLKGAFKAVMTSIKQLSSEELEQFQKTGTIVVEGHELHDEDIRLMYTFDQATGGTAQFEAHSDAQALVLLDVTPDQSMVDEGMAREVINRIQKLRKKCNLVPTDEITVYYKAKSEGTYLNSVIESHTEFIFTTIKAPLKPYPVSPSDKVLIQEKTQLKGSELEITLTRGSSLPGPACAYVNLNICANGSEQGGVLLLENPKGDNRLDLLKLKSVVTSIFGVKNTELAVFHDETEIQNQTDLLSLSGKTLCVTAGSAPSLINSSSTLLCQYINLQLLNAKPQECLMGTVGTLLLENPLGQNGLTHQGLLYEAAKVFGLRSRKLKLFLNETQTQEITEDIPVKTLNMKTVYVSVLPTTADF
B2: serpin family B member 3 (protein, UniProt P29508 1-390)
chain: MNSLSEANTKFMFDLFQQFRKSKENNIFYSPISITSALGMVLLGAKDNTAQQIKKVLHFDQVTENTTGKAATYHVDRSGNVHHQFQKLLTEFNKSTDAYELKIANKLFGEKTYLFLQEYLDAIKKFYQTSVESVDFANAPEESRKKINSWVESQTNEKIKNLIPEGNIGSNTTLVLVNAIYFKGQWEKKFNKEDTKEEKFWPNKNTYKSIQMMRQYTSFHFASLEDVQAKVLEIPYKGKDLSMIVLLPNEIDGLQKLEEKLTAEKLMEWTSLQNMRETRVDLHLPRFKVEESYDLKDTLRTMGMVDIFNGDADLSGMTGSRGLVLSGVLHKAFVEVTEEGAEAAAATAVVGFGSSPTSTNEEFHCNHPFLFFIRQNKTNSILFYGRFSSP
B3: corneodesmosin (protein, UniProt Q15517 33-529)
chain: KSIGTFSDPCKDPTRITSPNDPCLTGKGDSSGFSSYSGSSSSGSSISSARSSGGGSSGSSSGSSIAQGGSAGSFKPGTGYSQVSYSSGSGSSLQGASGSSQLGSSSSHSGNSGSHSGSSSSHSSSSSSFQFSSSSFQVGNGSALPTNDNSYRGILNPSQPGQSSSSSQTFGVSSSGQSVSSNQRPCSSDIPDSPCSGGPIVSHSGPYIPSSHSVSGGQRPVVVVVDQHGSGAPGVVQGPPCSNGGLPGKPCPPITSVDKSYGGYEVVGGSSDSYLVPGMTYSKGKIYPVGYFTKENPVKGSPGVPSFAAGPPISEGKYFSSNPIIPSQSAASSAIAFQPVGTGGVQLCGGGSTGSKGPCSPSSSRVPSSSSISSSSGLPYHPCGSASQSPCSPPGTGSFSSSSSSQSSGKIILQPCGSKSSSSGHPCMSVSSLTLTGGPDGSPHPDPSAGAKPCGSSSAGKIPCRSIRDILAQVKPLGPQLADPEVFLPQGELLNSP
B4: LUC7 like 3 pre-mRNA splicing factor (protein, UniProt O95232 1-432)
chain: MISAAQLLDELMGRDRNLAPDEKRSNVRWDHESVCKYYLCGFCPAELFTNTRSDLGPCEKIHDENLRKQYEKSSRFMKVGYERDFLRYLQSLLAEVERRIRRGHARLALSQNQQSSGAAGPTGKNEEKIQVLTDKIDVLLQQIEELGSEGKVEEAQGMMKLVEQLKEERELLRSTTSTIESFAAQEKQMEVCEVCGAFLIVGDAQSRVDDHLMGKQHMGYAKIKATVEELKEKLRKRTEEPDRDERLKKEKQEREEREKEREREREERERKRRREEEEREKERARDRERRKRSRSRSRHSSRTSDRRCSRSRDHKRSRSRERRRSRSRDRRRSRSHDRSERKHRSRSRDRRRSKSRDRKSYKHRSKSRDREQDRKSKEKEKRGSDDKKSSVKSGSREKQSEDTNTESKESDTKNEVNGTSEDIKSEGDTQSN

Legend:
[1] = target: T1, C9orf72 long isoform with C-terminal FLAG tag (human) (UniProt Q96LT7); assay: affinity purification with mass spectrometry; FL-SMCR8, C9orf72-FL or empty vector transfected in HEK 293T; α-FLAG agarose IP from whole cell lysates with or without RNase; LC-MS/MS; hits with three or more spectra and not detected in vector only control
T1 sequence: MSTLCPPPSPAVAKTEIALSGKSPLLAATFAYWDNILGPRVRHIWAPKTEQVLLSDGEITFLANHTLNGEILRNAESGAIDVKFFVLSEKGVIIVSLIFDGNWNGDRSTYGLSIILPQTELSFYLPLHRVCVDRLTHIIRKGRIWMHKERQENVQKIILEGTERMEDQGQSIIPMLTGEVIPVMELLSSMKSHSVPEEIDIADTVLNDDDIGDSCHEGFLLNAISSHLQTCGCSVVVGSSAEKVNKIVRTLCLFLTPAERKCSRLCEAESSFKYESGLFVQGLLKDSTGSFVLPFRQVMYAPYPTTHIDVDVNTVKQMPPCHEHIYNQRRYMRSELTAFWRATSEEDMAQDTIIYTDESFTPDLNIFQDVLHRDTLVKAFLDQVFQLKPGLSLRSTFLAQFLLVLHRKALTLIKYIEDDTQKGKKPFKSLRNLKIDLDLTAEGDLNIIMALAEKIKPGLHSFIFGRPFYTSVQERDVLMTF

[2] = target: T2, FLAG-tagged SMCR8 (Smith-Magenis Syndrome Chromosome Region, Candidate 8) (UniProt Q8TEV9); assay: as above
T2 sequence: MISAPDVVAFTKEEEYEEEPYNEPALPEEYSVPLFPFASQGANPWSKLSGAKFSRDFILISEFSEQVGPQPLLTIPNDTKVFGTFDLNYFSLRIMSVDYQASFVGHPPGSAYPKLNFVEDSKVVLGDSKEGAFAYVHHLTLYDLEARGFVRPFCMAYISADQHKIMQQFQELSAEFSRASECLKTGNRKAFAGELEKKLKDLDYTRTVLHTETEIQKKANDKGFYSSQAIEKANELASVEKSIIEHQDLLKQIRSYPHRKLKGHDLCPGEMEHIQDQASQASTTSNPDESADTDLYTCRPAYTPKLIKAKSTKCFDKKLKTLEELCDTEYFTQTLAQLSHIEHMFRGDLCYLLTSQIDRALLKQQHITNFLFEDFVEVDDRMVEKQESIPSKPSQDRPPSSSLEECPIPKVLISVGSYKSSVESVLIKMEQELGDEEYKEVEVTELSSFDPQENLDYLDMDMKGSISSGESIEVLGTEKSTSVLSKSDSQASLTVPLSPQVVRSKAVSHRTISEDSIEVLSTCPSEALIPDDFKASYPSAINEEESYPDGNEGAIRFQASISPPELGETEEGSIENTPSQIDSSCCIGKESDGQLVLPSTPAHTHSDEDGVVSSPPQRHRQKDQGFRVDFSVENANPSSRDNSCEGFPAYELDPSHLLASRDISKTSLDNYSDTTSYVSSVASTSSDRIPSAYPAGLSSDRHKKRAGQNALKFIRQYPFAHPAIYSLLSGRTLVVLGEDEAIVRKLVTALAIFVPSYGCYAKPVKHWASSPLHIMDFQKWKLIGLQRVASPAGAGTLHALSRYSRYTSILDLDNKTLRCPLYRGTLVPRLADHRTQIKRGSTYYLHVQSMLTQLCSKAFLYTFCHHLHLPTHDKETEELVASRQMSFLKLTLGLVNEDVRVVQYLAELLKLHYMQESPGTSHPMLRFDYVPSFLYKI

| Molecule | binding [1] | binding [2] |
| --- | --- | --- |
| eukaryotic translation initiation factor 2 subunit gamma (from UniProt P41091 1-472) | binds | – |
| proteasome 26S subunit, ATPase 2 (from UniProt P35998 1-433) | binds | binds |
| hydroxyacyl-CoA dehydrogenase/3-ketoacyl-CoA thiolase/enoyl-CoA hydratase, alpha subunit (from UniProt P40939 37-763) | binds | – |
| RB1CC1 (from UniProt Q8TDY2 1-1594) | binds | binds |
| fatty acid binding protein 5 (from UniProt Q01469 1-135) | binds | – |
| RAB1B, member RAS oncogene family (from UniProt Q9H0U4 1-201) | binds | binds |
| coatomer protein complex subunit beta 1 (from UniProt P53618 1-953) | binds | – |
| calmodulin like 5 (from UniProt Q9NZT1 1-146) | binds | – |
| filaggrin family member 2 (from UniProt Q5D862 1-2391) | binds | – |
| B1 | binds | binds |
| B2 | binds | binds |
| B3 | binds | – |
| B4 | binds | – |
